ChEMBL document CHEMBL4303122, “Identification of potential treatments for COVID-19 through artificial intelligence-enabled phenomic analysis of human cells infected with SARS-CoV-2” (2020)
Whole data set: some 1,600 compounds, median “Hit score” near 0.13, cut for the highest 2% near 0.46. This is one part of the list.

What follows are molecules tested on SARS-CoV-2 (assay: Antiviral activity against SARS-CoV-2 (USA-WA1/2020 strain) measured by imaging in HRCE cells at MOI 0.4 after 96 hrs (reported as hit score from 0-1 for on-disease vs off-disease activity: scores >0.6 considered hits)).
Assay type: functional, Homo sapiens

Point of comparison: `CCC[C@@]1(CCc2ccccc2)CC(O)=C([C@H](CC)c2cccc(NS(=O)(=O)c3ccc(C(F)(F)F)cn3)c2)C(=O)O1`, Hit score 0.04844. Against it:
- CC(C(=O)O)c1ccc2c(c1)CC(=O)c1ccccc1S2 (configuration not stated) [ZALTOPROFEN] — higher, 0.1748
- Cc1nc(-c2ccc(OCC(C)C)c(C#N)c2)sc1C(=O)O [FEBUXOSTAT] — higher, 0.1568
- CC(COc1ccccc1)NC(C)C(O)c1ccc(O)cc1 (configuration not stated) [ISOXSUPRINE] — lower, 0.0468
- CNC(=O)Oc1ccc2c(c1)[C@]1(C)CCN(C)[C@@H]1N2C [PHYSOSTIGMINE] — higher, 0.353
- CC[C@@H](C(=O)[C@@H](C)[C@@H](O)[C@H](C)[C@@H]1O[C@@H]([C@@H](CC)C(=O)O)CC[C@@H]1C)[C@H]1O[C@]2(C=C[C@@H](O)[C@]3(CC[C@@](C)([C@H]4CC[C@](O)(CC)[C@H](C)O4)O3)O2)[C@H](C)C[C@@H]1C [SALINOMYCIN] — higher, 0.357
- CCOC(=O)C1=C(COCCN)NC(C)=C(C(=O)OC)[C@@H]1c1ccccc1Cl [LEVAMLODIPINE] — lower, -0.04073
- CCOC(=O)NNc1nncc2ccccc12 [TODRALAZINE] — higher, 0.1079
- CCCCN1CCCCC1C(=O)Nc1c(C)cccc1C (configuration not stated) [BUPIVACAINE] — higher, 0.1503
- CC(C)[C@@]1(NC(=O)[C@@H]2C[C@@H]3c4cccc5[nH]cc(c45)C[C@H]3N(C)C2)O[C@@]2(O)[C@@H]3CCCN3C(=O)[C@H](Cc3ccccc3)N2C1=O.CS(=O)(=O)O [DIHYDROERGOCRISTINE MESYLATE] — higher, 0.1553
- NS(=O)(=O)c1cc(-c2nnn[nH]2)c(NCc2cccs2)cc1Cl [AZOSEMIDE] — higher, 0.09549
- COc1cc(NC(C)CCCN)c2ncccc2c1 (configuration not stated) [PRIMAQUINE] — higher, 0.08859
- CCCCC1(COC(=O)CCC(=O)O)C(=O)N(c2ccccc2)N(c2ccccc2)C1=O [SUXIBUZONE] — higher, 0.0562
- O=c1[nH]c(=O)n([C@H]2C[C@H](O)[C@@H](CO)O2)cc1Br [BROXURIDINE] — higher, 0.06259
- CCn1cc(C(=O)O)c(=O)c2ccc(-c3ccncc3)cc21 [ROSOXACIN] — higher, 0.1616
- NC(N)=Nc1nc(CSCC/C(N)=N/S(N)(=O)=O)cs1 [FAMOTIDINE] — higher, 0.1617
- Cc1cc(-c2ccccc2)nnc1NCCN1CCOCC1 [MINAPRINE] — higher, 0.06763
- CC(CN(C)C)CN1c2ccccc2Sc2ccc(C#N)cc21 (configuration not stated) [CYAMEMAZINE] — higher, 0.06709
- CN(Cc1cnc2nc(N)nc(N)c2n1)c1ccc(C(=O)N[C@@H](CCC(=O)O)C(=O)O)cc1 [METHOTREXATE] — higher, 0.1078
- CCN(CC)CCNc1ccc(CO)c2sc3ccccc3c(=O)c12 [HYCANTHONE] — lower, 0.04803
- CCCCCCCCC(=O)NCc1ccc(O)c(OC)c1 [NONIVAMIDE] — higher, 0.2361
- C[N+]1(C)CCC(OC(=O)C(O)(c2ccccc2)C2CCCC2)C1.[Br-] (configuration not stated) [GLYCOPYRRONIUM BROMIDE] — higher, 0.1715
- COC(=O)[C@H]1[C@H]2C[C@@H]3c4[nH]c5ccccc5c4CCN3C[C@H]2C[C@@H](OC(=O)c2cc(OC)c(OC)c(OC)c2)[C@@H]1OC [DESERPIDINE] — lower, 0.0138
- CSc1ccc(OCc2ncc([N+](=O)[O-])n2C)cc1 [FEXINIDAZOLE] — higher, 0.1901
- CN(C)c1ccc(O)c2c1C[C@H]1C[C@H]3[C@H](N(C)C)C(O)=C(C(N)=O)C(=O)[C@@]3(O)C(O)=C1C2=O [MINOCYCLINE] — higher, 0.178
- CCCCCCCCCCCCCCCCOP(=O)([O-])OCC[N+](C)(C)C [MILTEFOSINE] — higher, 0.1709
- Cc1ccc(S(=O)(=O)NC(=O)NN2CCCCCC2)cc1 [TOLAZAMIDE] — higher, 0.157
- CN1CCN(c2c(F)cc3c(=O)c(C(=O)O)cn4c3c2OCN4C)CC1 [MARBOFLOXACIN] — higher, 0.2428
- CC(C)(C)CC(C)(C)c1ccc(O)c(Cc2ccc(Cl)cc2Cl)c1 [CLOFOCTOL] — higher, 0.3255
- CNC[C@H](O)[C@@H](O)[C@H](O)[C@H](O)CO.O=C(O)c1ccc2nc(-c3cc(Cl)cc(Cl)c3)oc2c1 [TAFAMIDIS MEGLUMINE] — higher, 0.09069
- C[C@H]1C[C@@H]2[C@H]([C@@H](O)C[C@@]3(C)[C@H]2CC[C@]3(O)C(=O)COC(=O)CCC(=O)[O-])[C@@]2(C)C=CC(=O)C=C12.[Na+] [METHYLPREDNISOLONE SODIUM SUCCINATE] — higher, 0.2909
- C=CCSCC1Nc2cc(Cl)c(S(N)(=O)=O)cc2S(=O)(=O)N1 (configuration not stated) [ALTHIAZIDE] — higher, 0.1758
- C=CC(=O)Nc1cccc(Oc2nc(Nc3ccc(N4CCN(C)CC4)cc3)nc3ccsc23)c1 [OLMUTINIB] — higher, 0.2407
- O=C(O)CCC/C=C\CC1C(O)CC(O)C1/C=C/C(O)COc1cccc(Cl)c1 (configuration not stated) [CLOPROSTENOL] — lower, -0.03107
- CC(C(=O)O)c1ccc(C(=O)c2ccccc2)s1 (configuration not stated) [TIAPROFENIC ACID] — higher, 0.1568
- O=C1CCCC(=O)C1C(=O)c1ccc(C(F)(F)F)cc1[N+](=O)[O-] [NITISINONE] — higher, 0.2981
- CN(C)CC/C=C1/c2ccccc2COc2ccc(CC(=O)O)cc21 [OLOPATADINE] — higher, 0.1069
- c1ccc(CN(CC2=NCCN2)c2ccccc2)cc1 [ANTAZOLINE] — higher, 0.1577
- O=C(/C=C/c1ccc(O)c(O)c1)O[C@@H]1C[C@](O)(C(=O)O)C[C@@H](O)[C@H]1O [CHLOROGENIC ACID] — higher, 0.1702
- CC(=O)Nc1cc([As](=O)(O)O)ccc1O [ACETARSONE] — higher, 0.1947
- C#C[C@]1(O)C=C[C@H]2[C@@H]3CCC4=CC(=O)CC[C@@H]4[C@H]3CC[C@@]21CC [GESTODENE] — higher, 0.1957
- C=CCOC(Cn1ccnc1)c1ccc(Cl)cc1Cl (configuration not stated) [ENILCONAZOLE] — higher, 0.1595
